Measurements published in paper PMC6907008.

The chains behind the UniProt entries cited, without tags or fusion partners. Where a name states a change or a piece, a line headed by the entry shows the natural chain unless it says otherwise.
UniProt Q8Y3Z3: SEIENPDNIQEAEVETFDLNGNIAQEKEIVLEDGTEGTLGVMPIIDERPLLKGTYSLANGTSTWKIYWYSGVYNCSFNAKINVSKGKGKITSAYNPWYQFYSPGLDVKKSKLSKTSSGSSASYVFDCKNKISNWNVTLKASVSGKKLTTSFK
UniProt O95786: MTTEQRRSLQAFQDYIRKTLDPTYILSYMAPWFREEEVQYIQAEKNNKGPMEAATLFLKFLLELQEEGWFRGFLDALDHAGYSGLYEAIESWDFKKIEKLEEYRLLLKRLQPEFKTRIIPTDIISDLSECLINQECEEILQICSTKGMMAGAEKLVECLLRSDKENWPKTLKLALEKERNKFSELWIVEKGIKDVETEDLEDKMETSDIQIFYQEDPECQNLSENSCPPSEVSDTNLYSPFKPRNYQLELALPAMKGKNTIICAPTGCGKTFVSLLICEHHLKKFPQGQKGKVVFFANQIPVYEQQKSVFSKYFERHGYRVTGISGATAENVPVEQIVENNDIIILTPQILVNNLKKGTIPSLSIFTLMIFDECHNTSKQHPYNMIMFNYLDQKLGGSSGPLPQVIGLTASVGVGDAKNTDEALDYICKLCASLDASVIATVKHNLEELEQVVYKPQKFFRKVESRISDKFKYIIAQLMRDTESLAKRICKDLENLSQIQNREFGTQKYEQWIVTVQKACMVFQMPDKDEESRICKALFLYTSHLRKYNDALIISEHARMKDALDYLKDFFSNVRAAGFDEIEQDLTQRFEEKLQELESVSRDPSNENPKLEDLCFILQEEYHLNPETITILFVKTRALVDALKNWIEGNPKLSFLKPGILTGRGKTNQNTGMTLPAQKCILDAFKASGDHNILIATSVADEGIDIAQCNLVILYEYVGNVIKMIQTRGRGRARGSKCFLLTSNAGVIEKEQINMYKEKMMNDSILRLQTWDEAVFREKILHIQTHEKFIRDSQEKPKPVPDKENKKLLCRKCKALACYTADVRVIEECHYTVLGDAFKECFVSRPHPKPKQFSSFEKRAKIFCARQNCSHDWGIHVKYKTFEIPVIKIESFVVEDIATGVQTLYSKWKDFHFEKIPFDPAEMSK

Biological target: C-terminally FLAG-tagged Zea (Lmo2686) overexpressed in L. monocytogenes (L. monocytogenes) (UniProt Q8Y3Z3)
Assay: pull-down; ZeaFLAG immunopurified from L. monocytogenes culture medium on M2 Flag magnetic beads, incubated overnight at 4°C with lysate of HEK293 cells stably expressing Strep-RIG-I; with or without RNaseA (100 μg/mL); eluted with 3xFlag peptide; immunoblot; only the target purified

“Strep-tagged RIG-I stably expressed in HEK293 cells (from UniProt O95786 1-925)” was tested, and the binding was “binds”.

No constants are given. Whether binding was seen depends on the method and setting. In cells and extracts the contact can be indirect. A result given as binding can be weak or reduced; the word gives no strength.
